# Some of the results follow.
# B1: PX9961Q-bfa-504-27-504 (Bacteroides fragilis) (protein)
# chain: NDWLDRKPADGIPSEDAITNYNDALTARTGMYDGIQGNSNATSYYGARMFYYGDVRADDMQARTQGMRSSSCYEMLYTVDDAPNMWNIPYNVIRRANRLIEAINEKKVTDATEAQIGKIYSEALVVRALVHFDLVRIYGMPYTADNGASLGVPVIVKPLERNDLPSRNTVAEVYTQVITDLTDAINSGYLAKDQTPGYINEWAAKALLTRVYLTKGDNENALKVAEDIITNSPYKLWTNEEYVNAWYKSNGAHTNEMIFEVVNASNDDWTDRNGIAYLLNENGYADAIVTKSFMNMLSQDPKDVRIGMVLPAQYDKDLQEEYGDAKIFINKFPADKDDVGEMRLNNLPLLRLSEVYLSAAEAAAKLGGHQDKAAKYLNEIVQRANPEAKAISEADATVERIILERRKEMIGEGQRYFDALRNNETIVRYKDEGDKGYHYSLIKESQSFDRTYFRAILPIPVDETNVNPNLRAQQNPGY
# What was measured:
# Assay in all cases: glycan array binding signal (z-score within array); higher = stronger binding
# Details in all cases: glycan notation: IUPAC condensed, linker removed
# [1] = target: Gal(b1-3)GalNAc(b1-3)Gal(a1-4)Gal(b1-4)Glc
# Summary of the method: (§1)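 Negative Z-scores can be read as non-binding. The Z-score is calculated within each array and then averaged across arrays of one protein sequence at different concentrations or buffers and across linkers. Arrays, 3228 in all, were curated from the Consortium for Functional Glycomics database and kept only where the protein sequence was available.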
# [2] = target: Gal(b1-3)GalNAc(b1-4)Gal(b1-4)Glc
# Summary of the method: as §1
# [3] = target: Gal(b1-3)GalNAc(b1-4)[Neu5Ac(a2-3)]Gal(b1-4)Glc
# Summary of the method: as §1
# Gal(b1-3)GlcNAc = target: Gal(b1-3)GlcNAc
# Summary of the method: as §1
# [4] = target: Gal(b1-3)GlcNAc(a1-3)Gal(b1-4)GlcNAc
# Summary of the method: as §1
# [5] = target: Gal(b1-3)GlcNAc(a1-6)Gal(b1-4)GlcNAc
# Summary of the method: as §1
# Gal(b1-3)GlcNAc(b1-2)Man = target: Gal(b1-3)GlcNAc(b1-2)Man
# Summary of the method: as §1
# [6] = target: Gal(b1-3)GlcNAc(b1-2)Man(a1-3)[Gal(b1-3)GlcNAc(b1-2)Man(a1-6)]Man(b1-4)GlcNAc(b1-4)GlcNAc
# Summary of the method: as §1
# [7] = target: Gal(b1-3)GlcNAc(b1-2)Man(a1-3)[Gal(b1-3)GlcNAc(b1-2)Man(a1-6)]Man(b1-4)GlcNAc(b1-4)[Fuc(a1-6)]GlcNAc
# Summary of the method: as §1
# [8] = target: Gal(b1-3)GlcNAc(b1-2)Man(a1-3)[GlcNAc(b1-4)][Gal(b1-3)GlcNAc(b1-2)Man(a1-6)]Man(b1-4)GlcNAc(b1-4)GlcNAc
# Summary of the method: as §1
# [9] = target: Gal(b1-3)GlcNAc(b1-2)[Gal(b1-3)GlcNAc(b1-6)]Man(a1-6)[Gal(b1-3)GlcNAc(b1-2)Man(a1-3)]Man(b1-4)GlcNAc(b1-4)GlcNAc
# Summary of the method: as §1
# [10] = target: Gal(b1-3)GlcNAc(b1-3)Gal(b1-3)GlcNAc
# Summary of the method: as §1
# [11] = target: Gal(b1-3)GlcNAc(b1-3)Gal(b1-4)Glc
# Summary of the method: as §1
# [12] = target: Gal(b1-3)GlcNAc(b1-3)Gal(b1-4)GlcNAc
# Summary of the method: as §1
# [13] = target: Gal(b1-3)GlcNAc(b1-3)Gal(b1-4)GlcNAc(b1-2)Man(a1-3)[Gal(b1-3)GlcNAc(b1-3)Gal(b1-4)GlcNAc(b1-2)Man(a1-6)]Man(b1-4)GlcNAc(b1-4)GlcNAc
# Summary of the method: as §1
# [14] = target: Gal(b1-3)GlcNAc(b1-3)Gal(b1-4)GlcNAc(b1-2)[Gal(b1-3)GlcNAc(b1-3)Gal(b1-4)GlcNAc(b1-6)]Man(a1-6)[Gal(b1-3)GlcNAc(b1-3)Gal(b1-4)GlcNAc(b1-2)Man(a1-3)]Man(b1-4)GlcNAc(b1-4)[Fuc(a1-6)]GlcNAc
# Summary of the method: as §1
# [15] = target: Gal(b1-3)GlcNAc(b1-3)Gal(b1-4)GlcNAc(b1-3)Gal(b1-4)GlcNAc(b1-2)[Gal(b1-3)GlcNAc(b1-3)Gal(b1-4)GlcNAc(b1-3)Gal(b1-4)GlcNAc(b1-6)]Man(a1-6)[Gal(b1-3)GlcNAc(b1-3)Gal(b1-4)GlcNAc(b1-3)Gal(b1-4)GlcNAc(b1-2)Man(a1-3)]Man(b1-4)GlcNAc(b1-4)[Fuc(a1-6)]GlcNAc
# Summary of the method: as §1
# [16] = target: Gal(b1-3)GlcNAc(b1-3)Gal(b1-4)GlcNAc(b1-6)[Gal(b1-3)GlcNAc(b1-3)]Gal(b1-4)Glc
# Summary of the method: as §1
# [17] = target: Gal(b1-3)GlcNAc(b1-3)Gal(b1-4)[Fuc(a1-3)]GlcNAc
# Summary of the method: as §1
# [18] = target: Gal(b1-3)GlcNAc(b1-3)Gal(b1-4)[Fuc(a1-3)]GlcNAc(b1-6)[Gal(b1-3)GlcNAc(b1-3)]Gal(b1-4)Glc
# Summary of the method: as §1
# [19] = target: Gal(b1-3)GlcNAc(b1-3)GalNAc
# Summary of the method: as §1
# [20] = target: Gal(b1-3)GlcNAc(b1-6)Gal(b1-4)GlcNAc
# Summary of the method: as §1
# [21] = target: Gal(b1-3)GlcNAc(b1-6)GalNAc
# Summary of the method: as §1
# [22] = target: Gal(b1-3)GlcNAc(b1-6)[Gal(b1-3)]GalNAc
# Summary of the method: as §1
# Gal(b1-3)GlcNAc6S = target: Gal(b1-3)GlcNAc6S
# Summary of the method: as §1
# [23] = target: Gal(b1-3)[Fuc(a1-4)]GlcNAc
# Summary of the method: as §1
# [24] = target: Gal(b1-3)[Fuc(a1-4)]GlcNAc(b1-2)Man
# Summary of the method: as §1
# [25] = target: Gal(b1-3)[Fuc(a1-4)]GlcNAc(b1-2)Man(a1-3)[Gal(b1-3)[Fuc(a1-4)]GlcNAc(b1-2)Man(a1-6)]Man(b1-4)GlcNAc(b1-4)[Fuc(a1-6)]GlcNAc
# Summary of the method: as §1
# [26] = target: Gal(b1-3)[Fuc(a1-4)]GlcNAc(b1-3)Gal(b1-3)[Fuc(a1-4)]GlcNAc
# Summary of the method: as §1
# [27] = target: Gal(b1-3)[Fuc(a1-4)]GlcNAc(b1-3)Gal(b1-4)[Fuc(a1-3)]GlcNAc
# Summary of the method: as §1
# [28] = target: Gal(b1-3)[Fuc(a1-4)]GlcNAc(b1-6)GalNAc
# Summary of the method: as §1
# [29] = target: Gal(b1-3)[GlcNAc(b1-6)]GalNAc
# Summary of the method: as §1
# [30] = target: Gal(b1-3)[Neu5Ac(a2-6)]GalNAc
# Summary of the method: as §1
# [31] = target: Gal(b1-3)[Neu5Ac(a2-6)]GlcNAc(b1-4)Gal(b1-4)Glc
# Summary of the method: as §1
# [32] = target: Gal(b1-3)[Neu5Ac(b2-6)]GalNAc
# Summary of the method: as §1
# Gal(b1-4)Gal = target: Gal(b1-4)Gal
# Summary of the method: as §1
# [33] = target: Gal(b1-4)GalNAc(a1-3)[Fuc(a1-2)]Gal(b1-4)GlcNAc
# Summary of the method: as §1
# [34] = target: Gal(b1-4)GalNAc(b1-3)[Fuc(a1-2)]Gal(b1-4)GlcNAc
# Summary of the method: as §1
binder,measurement,setting,value
B1,glycan array binding signal (z-score),[1],-0.745
same,glycan array binding signal (z-score),[2],0.437
same,glycan array binding signal (z-score),[3],-0.428
same,glycan array binding signal (z-score),Gal(b1-3)GlcNAc,-0.664
same,glycan array binding signal (z-score),[4],-1.02
same,glycan array binding signal (z-score),[5],-0.85
same,glycan array binding signal (z-score),Gal(b1-3)GlcNAc(b1-2)Man,0.601
same,glycan array binding signal (z-score),[6],3.77
same,glycan array binding signal (z-score),[7],0.143
same,glycan array binding signal (z-score),[8],0.252
same,glycan array binding signal (z-score),[9],0.113
same,glycan array binding signal (z-score),[10],-0.653
same,glycan array binding signal (z-score),[11],0.105
same,glycan array binding signal (z-score),[12],-0.661
same,glycan array binding signal (z-score),[13],1.6
same,glycan array binding signal (z-score),[14],-0.16
same,glycan array binding signal (z-score),[15],-0.127
same,glycan array binding signal (z-score),[16],0.879
same,glycan array binding signal (z-score),[17],0.799
same,glycan array binding signal (z-score),[18],12.8
same,glycan array binding signal (z-score),[19],-0.114
same,glycan array binding signal (z-score),[20],-0.02
same,glycan array binding signal (z-score),[21],0.299
same,glycan array binding signal (z-score),[22],0.989
same,glycan array binding signal (z-score),Gal(b1-3)GlcNAc6S,-0.822
same,glycan array binding signal (z-score),[23],-0.224
same,glycan array binding signal (z-score),[24],0.017
same,glycan array binding signal (z-score),[25],1.1
same,glycan array binding signal (z-score),[26],-0.572
same,glycan array binding signal (z-score),[27],0.392
same,glycan array binding signal (z-score),[28],0.047
same,glycan array binding signal (z-score),[29],-0.541
same,glycan array binding signal (z-score),[30],-0.208
same,glycan array binding signal (z-score),[31],-0.044
same,glycan array binding signal (z-score),[32],-0.578
same,glycan array binding signal (z-score),Gal(b1-4)Gal,-0.849
same,glycan array binding signal (z-score),[33],-1.68
same,glycan array binding signal (z-score),[34],-1.21

# An excerpt of the results above, as a working copy:
binder,measurement,setting,value
B1,glycan array binding signal (z-score),[13],1.6
same,glycan array binding signal (z-score),[14],-0.16
same,glycan array binding signal (z-score),[15],-0.127
same,glycan array binding signal (z-score),[16],0.879
same,glycan array binding signal (z-score),[17],0.799
same,glycan array binding signal (z-score),[18],12.8
same,glycan array binding signal (z-score),[19],-0.114
same,glycan array binding signal (z-score),[20],-0.02
